In PMC6763431, “Methionine in a protein hydrophobic core drives tight interactions required for assembly of spider silk” (Nature Communications, 2019):
Results are given in words; binding and its absence hold for the method and conditions named. Some entries that bind do so weakly or less than the wild type.

Tests used:
[1] = target: T1, wild-type N-terminal domain of major ampullate spidroin 1 (MaSp1) from Euprosthenops australis (Euprosthenops australis), Q05H60; test: NMR chemical shift changes (1H,15N HSQC) between monomer and dimer conditions; pH 7.0, 200 mM ionic strength against pH 6.0, 8 mM ionic strength; 298 K; 300 µM protein (600 µM L6-NTD for assignments at pH 6); both purified; settings: remark: other sources report otherwise
T1 chain: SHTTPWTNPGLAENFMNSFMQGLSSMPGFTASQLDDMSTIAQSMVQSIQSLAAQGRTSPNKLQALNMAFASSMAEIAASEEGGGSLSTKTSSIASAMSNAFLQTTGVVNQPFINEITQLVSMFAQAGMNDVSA

[2] = target: T1, wild-type N-terminal domain of major …; test: SEC; high-resolution SEC with Trp fluorescence detection, Superdex-75 Increase 10/300, 0.8 ml/min, 20 mM MES, pH 6.0, ionic strength 20 mM (KCl); elution volume against protein concentration fitted to a monomer/dimer equilibrium; dimer to monomers; both purified; settings: remark: other sources report otherwise
[3] = target: wild-type N-terminal domain of major ampullate spidroin 1 (MaSp1) from Euprosthenops australis (Euprosthenops australis) (UniProt Q05H60); test: condition: only at pH 7.0 and 200 mM ionic strength; SEC-MALS; 50 mM phosphate, pH 7.0, ionic strength 200 mM (KCl), monomer conditions; Superdex-75 or Superdex-200 HR10/300, 0.5 ml/min; both purified

B1: wild-type N-terminal domain of major ampullate spidroin 1 (MaSp1) from Euprosthenops australis, Q05H60 24-156 (domain or fragment)
chain: SHTTPWTNPGLAENFMNSFMQGLSSMPGFTASQLDDMSTIAQSMVQSIQSLAAQGRTSPNKLQALNMAFASSMAEIAASEEGGGSLSTKTSSIASAMSNAFLQTTGVVNQPFINEITQLVSMFAQAGMNDVSA
B1 was tested, and the binding [1] was “binds” and the binding [2] was “binds”.

B2: wild-type N-terminal domain of major ampullate spidroin 1 (MaSp1) from Euprosthenops australis (domain or fragment, UniProt Q05H60 24-156)
chain: SHTTPWTNPGLAENFMNSFMQGLSSMPGFTASQLDDMSTIAQSMVQSIQSLAAQGRTSPNKLQALNMAFASSMAEIAASEEGGGSLSTKTSSIASAMSNAFLQTTGVVNQPFINEITQLVSMFAQAGMNDVSA
For B2, the binding [3] was “no binding”.
